Source: patent publication US20230181599A1, “PROGESTOGEN FORMULATIONS AND USES THEREOF” (Shenzhen Evergreen Therapeutics Co., Ltd, priority 2020, published 2023)
At least one compound was matched to its structure with a doubt left.

How the values were obtained:
Format in all cases: in vivo, Wistar rats
[1] = system: smoke exposure-induced COPD rats; assay: Lung function (FEV0.2/FVC, small animal spirometer) in smoke exposure-induced COPD rats; conditions: CS-exposed rats, nebulized drug; compared with the model group
Protocol: (§1) Seventy-two Wistar rats were randomly divided into the blank control group, model group, 17-HPC (0.5 mg/ml, 0.25 mg/ml and 0.1 mg/ml) groups, BUD (0.5 mg/ml and 0.1 mg/ml) groups, and combination treatment (0.5 mg/ml BUD+0.25 mg/ml 17-HPC and 0.1 mg/ml BUD+0.25 mg/ml 17-HPC) groups. Drug concentration is the nebulized solution concentration. Lung function (forced vital capacity) of rats was measured using the small animal spirometer, and differential count in the BALF was determined under the microscope. Serum and BALF cytokine (IL-6, IL-17, TNF-α and IL-β) levels were measured by ELISA. Inflammatory cell infiltration area and MLI in rat lung tissues were determined by HE staining. Lung function of rats was measured using the small animal spirometer after 24 weeks of CS exposure.

[2] = system: smoke exposure-induced COPD rats; assay: Differential count in BALF (neutrophils) of COPD rats
Protocol: (§2) Seventy-two Wistar rats were randomly divided into the blank control group, model group, 17-HPC (0.5 mg/ml, 0.25 mg/ml and 0.1 mg/ml) groups, BUD (0.5 mg/ml and 0.1 mg/ml) groups, and combination treatment (0.5 mg/ml BUD+0.25 mg/ml 17-HPC and 0.1 mg/ml BUD+0.25 mg/ml 17-HPC) groups. Drug concentration is the nebulized solution concentration. Lung function (forced vital capacity) of rats was measured using the small animal spirometer, and differential count in the BALF was determined under the microscope. Serum and BALF cytokine (IL-6, IL-17, TNF-α and IL-β) levels were measured by ELISA. Inflammatory cell infiltration area and MLI in rat lung tissues were determined by HE staining. […] The efficacy of high dose BUD was equivalent to that of high dose BUD+17-HPC.

[3] = system: TNF-α, IL-1β, IL-6 and IL-17; assay: Serum and BALF cytokine levels by ELISA in COPD rats; conditions: different doses, aside from the low dose (0.1 mg/ml) 17-HPC group
Protocol: as §1, with “To examine the in vitro and in vivo efficacy of 17-HPC inhalation in chronic obstructive pulmonary disease (COPD) rats, a rat model of COPD was established by exposing Wistar rats to CS for 1 hour every day for a total of 180 days. Seventy-two” for “Seventy-two”, “staining.” for “staining. Lung function of rats was measured using the small animal spirometer after 24 weeks of CS exposure.”

[4] = system: smoke exposure-induced COPD rats; assay: HE staining of lung tissue: inflammatory cell infiltration area and MLI in COPD rats; conditions: aside from the 0.1 mg/ml 17-HPC group; dose-dependent
Protocol: as §2

CCCC1O[C@@H]2C[C@H]3[C@@H]4CCC5=CC(=O)C=C[C@]5(C)[C@H]4[C@@H](O)C[C@]3(C)[C@]2(C(=O)CO)O1 (some centres unmarked) [BUD, budesonide]
FEV0.2/FVC % [1]: higher in the BUD group than in the model group
percentage of neutrophils in rat BALF ([2]; CS-exposed rats, nebulized drug): reduced the percentage of neutrophils
efficacy in reducing the proportion of BALF neutrophils, BUD vs 17-HPC ([2]; at the equivalent doses): superior to 17-HPC
TNF-α, IL-1β, IL-6 and IL-17 levels in the BALF [3]: downregulate
MLI [4]: decreased
